The test addresses ClSca (Cellulosilyticum lentocellum DSM 5427). Briefly: pull-down.

These are yes or no findings as the source states them, for the method shown. In cells and extracts the contact can be indirect. Binding can be weak; no strength is given.

B1: Clole_2778 (protein, UniProt F2JK62 1-107)
chain: MIDYKKLTDDLVKAREAAEKAVTGEDGGTANLDSLTLKLKGYREVKVIEAVKAAGLYTRGKREWIGTRYFIGPPVGAQGNDRVRQVEAMYKVMEDLGYDVLMFCQMD
On to B1, for which the binding entry is “binds”.

For the origin of these results see doi:10.1101/2023.01.24.524588.
